The target in this assay is Csp3 from Bacillus subtilis (BsCsp3) (Bacillus subtilis) (UniProt O07571). The assay is described as follows: SEC; Superdex 75 10/300 GL, 20 mM Hepes pH 7.5 plus 200 mM NaCl; BsCsp3-containing anion-exchange fractions from cell-free extracts; elution position compared with the purified BsCsp3 tetramer; both purified.

Results are given in words; binding and its absence hold for the method and conditions named. Some results given as binding are weak or reduced against the parent protein; the word gives no strength.

We go through 1 molecule from article PMC6747150.

B1: Csp3 from Bacillus subtilis (BsCsp3) (protein, UniProt O07571 1-108)
chain: MEQYSEACIEACIDCMKACNHCFTKCLEESVQHHLSGCIRLDRECADICALAVKAMQTDSPFMKEICALCADICEACGTECGKHDHDHCQACAKACFTCAEQCRSMAA
Turning to B1, the binding result is given as “binds”.
